Taken from: PubChem BioAssay AID1259281 (Sanger Institute, 2017)

- Purpose: 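Identify essential genes and drug-enhancing knock-downs among kinases and common colorectal mutated genes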 (primary screen)
- Cells: human COLO678 colorectal cancer cell line
- Reagent: siRNA pool against human genes
- Conditions: anchor drugs at fixed doses: BYL719 1 µM, cetuximab 5 µg/ml or trametinib 10 nM; DMSO vehicle for the siRNA-alone arm
- Detection: 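Cell viability compared with non-targeting pool wells, averaged over replicates; knock-down-alone effect also as robust z-score; synergy scores set knock-down plus drug against expected joint effect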
- Direction: robust z-score, siRNA alone: higher = more viable cells; strongly negative means essential; viability, siRNA alone: higher = more surviving cells
- Rule for the call: 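Called essential (knock-down alone) if knock-down by itself drops cell number to a robust z-score under -3; all others no change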
- Calls: active = essential (knock-down alone); inactive = no change
Here is a random part of 794 deposited reagents. 22 of all reagents (2.8%) were called active. 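Calls rest on knock-down alone only; drug synergy scores play no part in them.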 Entries without a mark were called inactive. No viability above 1 is reported: the scale is capped. Not all columns of the deposit are shown. No sequences are given here. Not stated in the record: the amount of reagent, the time to read-out.

What is on record for HIPK1 (GeneID 204851) [SID135620891]?
robust z-score, siRNA alone: 0.473; viability, siRNA alone (fraction of control): 1

With PIP5K1A (GeneID 8394) [SID56478868], what does the deposit list?
robust z-score, siRNA alone: 0.473; viability, siRNA alone (fraction of control): 1

Which result is listed for IP6K3 (GeneID 117283) [SID135621241]?
robust z-score, siRNA alone: 0.473; viability, siRNA alone (fraction of control): 1

What did the screen give for RIPK1 (GeneID 8737) [SID152148235]?
robust z-score, siRNA alone: 0.473; viability, siRNA alone (fraction of control): 1

What did the screen give for GAK (GeneID 2580) [SID152148846]?
robust z-score, siRNA alone: 0.473; viability, siRNA alone (fraction of control): 1

For GALK1 (GeneID 2584) [SID56479189], what was measured?
robust z-score, siRNA alone: 0.473; viability, siRNA alone (fraction of control): 1

With MAP4K5 (GeneID 11183) [SID56478702], what does the deposit list?
robust z-score, siRNA alone: 0.473; viability, siRNA alone (fraction of control): 1

How did the screen score DLG2 (GeneID 1740) [SID152155470]?
robust z-score, siRNA alone: 0.473; viability, siRNA alone (fraction of control): 1

What did the screen give for PIK3C2B (GeneID 5287) [SID56479135]?
robust z-score, siRNA alone: 0.473; viability, siRNA alone (fraction of control): 1

Which result is listed for CDK5R2 (GeneID 8941) [SID56479219]?
robust z-score, siRNA alone: 0.473; viability, siRNA alone (fraction of control): 1

What did the screen give for CKMT1B (GeneID 1159) [SID135621236]?
robust z-score, siRNA alone: 0.473; viability, siRNA alone (fraction of control): 1

For DLG3 (GeneID 1741) [SID135621778], what does the deposit list?
robust z-score, siRNA alone: 0.473; viability, siRNA alone (fraction of control): 1

With PIK3R5 (GeneID 23533) [SID152147687], how do the results read?
robust z-score, siRNA alone: 0.473; viability, siRNA alone (fraction of control): 1

Which result is listed for PHKA1 (GeneID 5255) [SID152155157]?
robust z-score, siRNA alone: 0.473; viability, siRNA alone (fraction of control): 1

For ELF3 (GeneID 1999) [SID135623079], how do the results read?
robust z-score, siRNA alone: -0.643; viability, siRNA alone (fraction of control): 0.965

With FCSK (GeneID 197258) [SID152149608], how do the results read?
robust z-score, siRNA alone: 0.473; viability, siRNA alone (fraction of control): 1

Which result is listed for CERK (GeneID 64781) [SID152152071]?
robust z-score, siRNA alone: 0.473; viability, siRNA alone (fraction of control): 1

What did the screen give for PIK3R2 (GeneID 5296) [SID135620607]?
robust z-score, siRNA alone: 0.473; viability, siRNA alone (fraction of control): 1

With LTK (GeneID 4058) [SID135620624], what does the deposit list?
robust z-score, siRNA alone: -0.366; viability, siRNA alone (fraction of control): 0.973

With TJP2 (GeneID 9414) [SID135621862], what was measured?
robust z-score, siRNA alone: 0.473; viability, siRNA alone (fraction of control): 1

For PRKCZ (GeneID 5590) [SID56478675], how do the results read?
robust z-score, siRNA alone: 0.473; viability, siRNA alone (fraction of control): 1

For ROS1 (GeneID 6098) [SID56478551], what does the deposit list?
robust z-score, siRNA alone: 0.115; viability, siRNA alone (fraction of control): 0.989

For MAST3 (GeneID 23031) [SID152151496], how do the results read?
robust z-score, siRNA alone: -1.03; viability, siRNA alone (fraction of control): 0.952

With CASK (GeneID 8573) [SID56479000], how do the results read?
robust z-score, siRNA alone: -0.358; viability, siRNA alone (fraction of control): 0.974

With PSKH1 (GeneID 5681) [SID135620975], how do the results read?
robust z-score, siRNA alone: 0.473; viability, siRNA alone (fraction of control): 1

What did the screen give for CEP290 (GeneID 80184) [SID152154792]?
robust z-score, siRNA alone: 0.473; viability, siRNA alone (fraction of control): 1

For BRSK1 (GeneID 84446) [SID135620852], how do the results read?
robust z-score, siRNA alone: 0.473; viability, siRNA alone (fraction of control): 1

What is on record for SYNCRIP (GeneID 10492) [SID134320219]?
robust z-score, siRNA alone: 0.347; viability, siRNA alone (fraction of control): 0.996
